No constants are given. Whether binding was seen depends on the method and setting. Binding seen in cells or lysates may run through a third protein. Some entries that bind do so weakly or less than the wild type.
Target: mixed lineage leukaemia histone methylase 1 (human (endogenous in HL-60)) (UniProt Q03164)
Assay: co-IP; nuclear extracts of HL-60 cells, untreated or treated with 100 nM E2 (6 h in methods, 8 h in results); incubated overnight at 4°C with MLL1 antibody on protein G agarose beads; washed with buffer C (20 mM Tris/HCl pH 7.9, 5 mM MgCl2, 420 mM KCl, 0.5 mM DTT) with 0.1% NP40; eluted with 0.2 M glycine pH 2.9; Western blot for ERα

Sequences of proteins named here, by UniProt entry; tags and fusion partners are left off.
UniProt Q03164: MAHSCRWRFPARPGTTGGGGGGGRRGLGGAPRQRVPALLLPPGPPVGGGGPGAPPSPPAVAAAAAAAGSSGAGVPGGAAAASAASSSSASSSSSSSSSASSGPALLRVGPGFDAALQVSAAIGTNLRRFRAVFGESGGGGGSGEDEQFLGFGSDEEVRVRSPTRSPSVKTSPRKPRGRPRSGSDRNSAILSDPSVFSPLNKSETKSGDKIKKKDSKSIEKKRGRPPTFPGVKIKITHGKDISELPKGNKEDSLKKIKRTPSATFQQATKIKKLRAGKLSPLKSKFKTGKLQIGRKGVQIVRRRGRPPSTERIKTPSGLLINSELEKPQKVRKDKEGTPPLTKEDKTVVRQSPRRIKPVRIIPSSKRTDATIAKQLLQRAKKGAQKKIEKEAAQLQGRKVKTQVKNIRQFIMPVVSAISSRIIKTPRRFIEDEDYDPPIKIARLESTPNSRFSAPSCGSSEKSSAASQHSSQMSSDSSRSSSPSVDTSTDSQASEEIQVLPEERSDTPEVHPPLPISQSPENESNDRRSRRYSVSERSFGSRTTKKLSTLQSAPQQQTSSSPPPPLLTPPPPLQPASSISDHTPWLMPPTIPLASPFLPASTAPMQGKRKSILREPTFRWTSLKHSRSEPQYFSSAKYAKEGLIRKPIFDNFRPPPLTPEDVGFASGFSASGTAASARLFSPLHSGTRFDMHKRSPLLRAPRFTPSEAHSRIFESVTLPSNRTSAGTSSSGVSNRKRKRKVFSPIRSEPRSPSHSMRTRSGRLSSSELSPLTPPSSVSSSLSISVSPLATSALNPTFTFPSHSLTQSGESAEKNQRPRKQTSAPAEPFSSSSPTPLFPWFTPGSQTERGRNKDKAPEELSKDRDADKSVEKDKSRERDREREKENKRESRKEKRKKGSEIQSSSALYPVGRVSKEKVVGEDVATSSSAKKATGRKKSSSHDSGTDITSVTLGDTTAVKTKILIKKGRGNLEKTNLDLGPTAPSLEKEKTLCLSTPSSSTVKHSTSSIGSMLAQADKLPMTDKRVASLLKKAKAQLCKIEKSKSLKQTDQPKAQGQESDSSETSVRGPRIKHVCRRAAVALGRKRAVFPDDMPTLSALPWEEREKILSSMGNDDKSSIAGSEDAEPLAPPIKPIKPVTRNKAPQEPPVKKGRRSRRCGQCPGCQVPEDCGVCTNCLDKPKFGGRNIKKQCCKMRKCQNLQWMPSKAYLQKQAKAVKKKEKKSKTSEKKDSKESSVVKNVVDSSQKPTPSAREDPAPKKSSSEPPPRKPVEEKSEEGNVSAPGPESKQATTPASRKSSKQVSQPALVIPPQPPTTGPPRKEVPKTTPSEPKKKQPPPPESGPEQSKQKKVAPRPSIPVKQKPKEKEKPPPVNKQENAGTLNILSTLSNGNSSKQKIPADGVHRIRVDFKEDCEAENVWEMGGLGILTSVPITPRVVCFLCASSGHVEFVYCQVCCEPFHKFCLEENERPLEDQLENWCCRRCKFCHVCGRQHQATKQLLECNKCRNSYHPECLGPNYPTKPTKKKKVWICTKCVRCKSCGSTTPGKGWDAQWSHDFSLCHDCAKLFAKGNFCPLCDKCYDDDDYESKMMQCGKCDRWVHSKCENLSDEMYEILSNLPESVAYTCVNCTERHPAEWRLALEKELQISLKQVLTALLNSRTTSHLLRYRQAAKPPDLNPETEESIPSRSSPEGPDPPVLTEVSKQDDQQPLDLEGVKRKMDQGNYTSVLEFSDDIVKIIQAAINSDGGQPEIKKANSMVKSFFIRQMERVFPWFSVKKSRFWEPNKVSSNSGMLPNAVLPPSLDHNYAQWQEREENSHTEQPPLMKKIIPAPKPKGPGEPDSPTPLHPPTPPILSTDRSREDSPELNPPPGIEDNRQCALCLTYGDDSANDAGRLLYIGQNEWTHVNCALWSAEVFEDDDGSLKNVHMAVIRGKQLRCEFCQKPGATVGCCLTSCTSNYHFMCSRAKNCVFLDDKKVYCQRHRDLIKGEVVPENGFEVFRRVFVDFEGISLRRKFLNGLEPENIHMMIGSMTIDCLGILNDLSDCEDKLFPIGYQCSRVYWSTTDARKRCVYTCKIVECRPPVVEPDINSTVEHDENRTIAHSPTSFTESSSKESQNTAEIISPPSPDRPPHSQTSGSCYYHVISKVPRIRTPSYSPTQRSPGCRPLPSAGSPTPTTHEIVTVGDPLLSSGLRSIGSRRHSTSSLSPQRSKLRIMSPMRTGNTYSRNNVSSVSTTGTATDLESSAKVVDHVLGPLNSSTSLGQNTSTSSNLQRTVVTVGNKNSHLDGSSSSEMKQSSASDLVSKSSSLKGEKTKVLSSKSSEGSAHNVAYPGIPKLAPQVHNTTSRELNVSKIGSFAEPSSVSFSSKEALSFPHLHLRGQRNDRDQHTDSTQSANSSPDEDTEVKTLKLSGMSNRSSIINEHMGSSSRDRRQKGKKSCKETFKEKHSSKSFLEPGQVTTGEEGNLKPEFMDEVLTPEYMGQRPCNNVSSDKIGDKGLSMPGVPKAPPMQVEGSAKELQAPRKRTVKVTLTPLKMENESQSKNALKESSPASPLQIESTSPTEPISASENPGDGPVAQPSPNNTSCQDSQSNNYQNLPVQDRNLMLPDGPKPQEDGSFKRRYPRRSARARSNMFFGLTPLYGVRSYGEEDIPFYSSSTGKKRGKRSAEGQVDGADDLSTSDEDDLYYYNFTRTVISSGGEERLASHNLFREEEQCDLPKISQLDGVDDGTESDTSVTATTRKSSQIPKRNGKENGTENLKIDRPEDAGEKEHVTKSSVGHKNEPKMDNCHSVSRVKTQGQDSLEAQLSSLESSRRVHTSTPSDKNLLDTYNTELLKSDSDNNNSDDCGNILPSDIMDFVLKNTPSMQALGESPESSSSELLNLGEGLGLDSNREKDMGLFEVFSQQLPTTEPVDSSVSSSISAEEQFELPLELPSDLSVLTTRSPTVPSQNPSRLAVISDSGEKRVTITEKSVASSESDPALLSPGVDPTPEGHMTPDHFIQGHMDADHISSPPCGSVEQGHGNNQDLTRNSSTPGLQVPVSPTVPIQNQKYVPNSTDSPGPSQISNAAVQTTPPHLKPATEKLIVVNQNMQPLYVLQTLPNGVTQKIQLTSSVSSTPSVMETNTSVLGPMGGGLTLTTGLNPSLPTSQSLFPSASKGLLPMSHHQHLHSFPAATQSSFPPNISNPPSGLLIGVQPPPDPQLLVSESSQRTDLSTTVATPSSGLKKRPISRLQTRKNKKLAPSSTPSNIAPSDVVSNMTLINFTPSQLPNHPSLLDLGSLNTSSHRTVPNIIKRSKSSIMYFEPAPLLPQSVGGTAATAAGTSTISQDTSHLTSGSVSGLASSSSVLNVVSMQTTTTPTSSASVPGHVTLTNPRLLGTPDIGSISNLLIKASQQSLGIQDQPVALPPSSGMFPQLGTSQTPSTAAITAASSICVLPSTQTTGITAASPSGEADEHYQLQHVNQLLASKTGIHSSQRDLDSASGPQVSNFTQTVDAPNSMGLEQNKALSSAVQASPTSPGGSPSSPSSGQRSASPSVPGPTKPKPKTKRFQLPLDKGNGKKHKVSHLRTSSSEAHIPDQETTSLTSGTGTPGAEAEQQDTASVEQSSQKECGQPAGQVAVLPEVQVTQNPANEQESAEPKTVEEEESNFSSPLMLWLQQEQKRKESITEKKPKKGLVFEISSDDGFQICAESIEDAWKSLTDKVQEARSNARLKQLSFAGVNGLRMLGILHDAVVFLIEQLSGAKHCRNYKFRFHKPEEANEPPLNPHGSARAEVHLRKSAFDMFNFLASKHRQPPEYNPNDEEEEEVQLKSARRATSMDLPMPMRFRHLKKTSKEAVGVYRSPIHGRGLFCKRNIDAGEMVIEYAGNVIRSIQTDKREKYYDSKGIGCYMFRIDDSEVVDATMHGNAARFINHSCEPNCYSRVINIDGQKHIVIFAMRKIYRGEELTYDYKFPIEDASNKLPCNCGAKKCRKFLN
UniProt P03372: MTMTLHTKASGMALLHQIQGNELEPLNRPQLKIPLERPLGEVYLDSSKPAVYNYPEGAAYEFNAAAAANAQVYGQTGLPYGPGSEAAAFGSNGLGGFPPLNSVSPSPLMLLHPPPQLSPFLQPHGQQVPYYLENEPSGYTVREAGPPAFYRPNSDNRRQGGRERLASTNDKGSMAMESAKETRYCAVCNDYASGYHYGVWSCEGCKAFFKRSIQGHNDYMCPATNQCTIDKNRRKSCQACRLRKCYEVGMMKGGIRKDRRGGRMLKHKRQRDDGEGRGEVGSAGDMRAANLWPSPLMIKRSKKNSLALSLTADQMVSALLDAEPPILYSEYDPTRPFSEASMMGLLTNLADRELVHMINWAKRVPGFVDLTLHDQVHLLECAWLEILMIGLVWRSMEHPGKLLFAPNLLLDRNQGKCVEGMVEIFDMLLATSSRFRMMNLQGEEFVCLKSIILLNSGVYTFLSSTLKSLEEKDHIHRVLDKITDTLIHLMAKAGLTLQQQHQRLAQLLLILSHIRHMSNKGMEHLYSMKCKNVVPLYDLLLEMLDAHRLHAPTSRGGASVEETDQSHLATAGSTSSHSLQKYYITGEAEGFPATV

binding: binds
Substance: oestrogen receptor α (from UniProt P03372 1-595)

From article PMC4266925
